{"sequences": {"note": "Protein sequences, listed by entry. Tags and fused reporters are not part of them.", "UniProt Q14191, whole entry, looked up": "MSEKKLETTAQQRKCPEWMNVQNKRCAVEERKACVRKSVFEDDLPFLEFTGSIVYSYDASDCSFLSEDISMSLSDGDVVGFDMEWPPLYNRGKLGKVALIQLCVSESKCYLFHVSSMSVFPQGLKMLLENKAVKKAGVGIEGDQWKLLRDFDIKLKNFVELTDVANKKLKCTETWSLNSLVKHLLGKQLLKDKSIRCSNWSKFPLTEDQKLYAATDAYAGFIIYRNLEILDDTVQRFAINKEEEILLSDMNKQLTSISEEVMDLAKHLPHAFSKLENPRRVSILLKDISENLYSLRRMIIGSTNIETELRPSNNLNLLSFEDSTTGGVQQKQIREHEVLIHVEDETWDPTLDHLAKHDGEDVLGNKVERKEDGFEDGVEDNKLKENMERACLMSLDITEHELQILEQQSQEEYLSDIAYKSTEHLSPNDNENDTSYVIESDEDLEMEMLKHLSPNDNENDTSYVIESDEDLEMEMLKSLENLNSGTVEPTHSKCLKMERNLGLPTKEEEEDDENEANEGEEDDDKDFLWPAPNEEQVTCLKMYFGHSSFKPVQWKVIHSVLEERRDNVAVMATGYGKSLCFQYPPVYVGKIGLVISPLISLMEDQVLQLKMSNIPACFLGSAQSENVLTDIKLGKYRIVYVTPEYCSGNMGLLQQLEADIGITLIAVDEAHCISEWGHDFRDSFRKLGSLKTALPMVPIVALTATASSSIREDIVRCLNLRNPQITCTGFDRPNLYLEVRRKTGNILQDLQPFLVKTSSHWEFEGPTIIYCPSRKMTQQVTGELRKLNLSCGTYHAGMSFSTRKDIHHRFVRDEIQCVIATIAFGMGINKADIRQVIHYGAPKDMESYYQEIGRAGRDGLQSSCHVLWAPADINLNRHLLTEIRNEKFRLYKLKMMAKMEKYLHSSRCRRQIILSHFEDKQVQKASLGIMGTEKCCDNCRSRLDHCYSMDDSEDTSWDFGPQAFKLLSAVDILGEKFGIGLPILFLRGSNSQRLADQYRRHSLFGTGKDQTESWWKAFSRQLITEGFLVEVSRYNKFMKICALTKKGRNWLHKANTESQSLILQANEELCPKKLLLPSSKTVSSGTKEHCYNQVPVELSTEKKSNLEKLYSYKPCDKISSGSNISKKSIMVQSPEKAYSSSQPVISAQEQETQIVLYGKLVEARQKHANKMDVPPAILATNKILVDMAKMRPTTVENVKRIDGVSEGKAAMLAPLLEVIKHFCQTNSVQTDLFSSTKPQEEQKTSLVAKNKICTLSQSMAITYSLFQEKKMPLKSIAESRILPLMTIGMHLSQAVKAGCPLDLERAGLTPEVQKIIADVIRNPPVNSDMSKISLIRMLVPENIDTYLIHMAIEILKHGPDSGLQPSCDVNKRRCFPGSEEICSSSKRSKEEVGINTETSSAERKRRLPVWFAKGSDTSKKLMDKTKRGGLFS"}, "source": "PubChem BioAssay AID651768", "about": "(National Center for Advancing Translational Sciences (NCATS), 2012)", "note": "Screen size: about 360,000 compounds; about 1,700 (0.47%) were called active. The inconclusive results got no clear call from the source; some entries with a clear call stand among them for comparison. Calls follow the shape of the dose curve; as a rule, active = well fitted inhibition curve with a large enough effect; inconclusive = small, poorly fitted or top-dose-only effect; inactive = no such curve, though single readings can be large or run the other way. Where the call is inconclusive, the potency comes from a doubtful curve fit. % is scaled to controls: 0 for no effect and ±100 for the full control effect; potency is read from the fitted curve at half-maximal effect.", "data": [{"biological_target": "Bifunctional 3'-5' exonuclease/ATP-dependent helicase WRN (Homo sapiens) (UniProt Q14191)", "test": "qHTS for Inhibitors of WRN Helicase; also: nearly all actives have a fitted effect of over 55% in size", "conditions": "WRN helicase unwinding, fluorescent forked duplex, kinetic; activity change, negative = inhibition: at 114 µM (top of the series) unless noted", "summary_of_the_method": "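Kinetic fluorescence helicase assay: unwinding of a quenched forked DNA duplex (100 nM final) with 2 mM ATP final raises red fluorescence (525/598 nm). Compounds sat 15 min at room temperature with 20 nM WRN beforehand.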", "values": [{"smiles": "C/C(=N\\OCC(=O)OCC(=O)NCc1ccccc1)c1ccc2c(c1)OCO2", "Potency": "inconclusive: 56.2 µM [inhibitor, partial curve, poor fit]"}, {"smiles": "CC1=[N+](C)c2ccc3ccccc3c2C1(C)C", "Potency": "active: 25.1 µM"}, {"smiles": "CCOC(=O)N1CCN(C(=O)CSC2=NS(=O)(=O)c3cc(Cl)ccc3N2)CC1", "Potency": "inconclusive: 89.1 µM [inhibitor, single point]"}, {"smiles": "Cc1ccc(NS(=O)(=O)c2ccc(NC(=O)c3ccc(-c4ccccc4)cc3)cc2)c(C)c1", "activity change, negative = inhibition": "inactive: 13%"}, {"smiles": "O=c1c(CN2CCN(c3cccc(Cl)c3)CC2)coc2c(Cl)cc(Cl)cc12", "Potency": "inconclusive: 89.1 µM [inhibitor, single point]"}, {"smiles": "Cc1c(/C=N/Nc2nc3ccccc3[nH]2)c2ccccc2n1C", "Potency": "inconclusive: 12.6 µM [inhibitor, full curve]"}, {"smiles": "COCCn1cnnc1SCC(=O)Nc1sc2c(c1C#N)CCC2", "Potency": "inconclusive: 89.1 µM [inhibitor, partial curve, poor fit]"}, {"smiles": "NS(=O)(=O)c1ccc(CCNC(=O)/C=C/c2ccc([N+](=O)[O-])cc2)cc1", "activity change, negative = inhibition": "inactive: 6.37%"}, {"smiles": "CC(=O)Nc1ccc(NC(=O)CSc2nnc(NC(=O)c3ccc(Br)o3)s2)cc1", "Potency": "active: 56.2 µM"}, {"smiles": "COc1ccccc1NS(=O)(=O)c1ccc(C)c(C(=O)NC2CCN(Cc3ccccc3)CC2)c1", "Potency": "inconclusive: 31.6 µM [inhibitor, full curve, poor fit]"}, {"smiles": "Cc1cccc(C)c1NC(=O)CN(C)C(=O)c1cccc(-n2cccc2)c1", "Potency": "active: 70.8 µM"}, {"smiles": "COc1ccc(C(=O)NCCCN2CCOCC2)cc1S(=O)(=O)N1CCCc2ccccc21", "activity change, negative = inhibition": "inactive: 9.83%"}, {"smiles": "O=c1ccc2c(-c3ccccc3S(=O)(=O)O)c3ccc(O)c(O)c3oc-2c1O", "Potency": "active: 0.212 µM"}, {"smiles": "Cc1ccc(-c2csc(C(C#N)=C(O)CN3CCN(C(=O)c4ccco4)CC3)n2)cc1", "Potency": "inconclusive: 2.82 µM [inhibitor, full curve]"}, {"smiles": "O=C(NCc1ccccc1Cl)C(=O)NCC1OCCN1S(=O)(=O)c1ccc(F)cc1", "note": "(configuration not stated)", "Potency": "inconclusive: 79.4 µM [inhibitor, single point]"}, {"smiles": "COc1cccc(NC(=O)CCN2C(=O)c3ccc([N+](=O)[O-])cc3C2=O)c1", "Potency": "inconclusive: 39.8 µM [inhibitor, single point]"}, {"smiles": "O=C(O)COc1ccc(/C=C/C(=O)c2ccc(C3CCCCC3)cc2)cc1", "Potency": "inconclusive: 56.2 µM [inhibitor, partial curve]"}, {"smiles": "CNc1nc(Nc2ccc(C)c(Cl)c2)nc(N)c1[N+](=O)[O-]", "Potency": "inconclusive: 56.2 µM [inhibitor, partial curve]"}, {"smiles": "COc1ccc(C(=O)N2CCN(c3ccc([N+](=O)[O-])c(NCCc4ccc(OC)c(OC)c4)c3)CC2)cc1", "Potency": "inconclusive: 11.2 µM [inhibitor, partial curve]"}, {"smiles": "Cc1cc(O)c(Oc2cc(C)cc(O)c2O)c(O)c1", "Potency": "active: 28.2 µM"}, {"smiles": "Cc1cc(C(=O)OCC(=O)Nc2sc3c(c2C#N)CCC(C)C3)c2ccccc2n1", "note": "(configuration not stated)", "activity change, negative = inhibition": "inactive: -12.9% [at 57.1 µM]"}, {"smiles": "NC(=O)c1c(NC(=O)C2CCCO2)sc2c1CCCCC2", "note": "(configuration not stated)", "Potency": "inconclusive: 89.1 µM [inhibitor, single point]"}, {"smiles": "CCc1cc2c(Nc3ccccc3O)nc(C)nc2s1", "Potency": "inconclusive: 8.91 µM [inhibitor, full curve, poor fit]"}, {"smiles": "CN(C(=O)C=Cc1ccco1)c1ccccc1", "Potency": "inconclusive: 8.91 µM [inhibitor, partial curve]"}, {"smiles": "Nc1[nH]n2c(=O)c3c(nc2c1N=Nc1ccc(Cl)cc1)CCCC3", "Potency": "inconclusive: 89.1 µM [inhibitor, single point]"}, {"smiles": "COc1cc(NS(=O)(=O)c2ccc(Nc3nc(-c4ccccn4)cs3)cc2)nc(OC)n1", "Potency": "inconclusive: 14.1 µM [inhibitor, partial curve]"}, {"smiles": "O=C(Cc1ccc(S(=O)(=O)N2CCCC2)s1)N1CCOCC1", "activity change, negative = inhibition": "inactive: -7.53% [at 57.1 µM]"}, {"smiles": "O=C(COc1ccccc1C(=O)c1cnn(-c2ccccc2)c1)Nc1ccccc1", "Potency": "inconclusive: 25.1 µM [inhibitor, single point]"}, {"smiles": "COc1cccc(OCC(O)CN2CCC(CN3C(=O)c4cccc5cccc(c45)C3=O)CC2)c1", "note": "(configuration not stated)", "activity change, negative = inhibition": "inactive: 56.5%"}, {"smiles": "COc1ccccc1NS(=O)(=O)c1ccc2[nH]c(=S)oc2c1", "Potency": "inconclusive: 22.4 µM [inhibitor, full curve]"}, {"smiles": "Cc1ccc(-c2cc(C(=O)N/N=C/c3ccccc3)n[nH]2)o1", "activity change, negative = inhibition": "inactive: 4.48%"}, {"smiles": "COc1ccc(N2C(=O)c3ccc(C(=O)OC(C)C)cc3C2=O)cc1", "Potency": "inconclusive: 89.1 µM [inhibitor, single point]"}, {"smiles": "O=C1/C(=C/c2ccco2)Oc2c1ccc(O)c2CN1CCCCC1", "Potency": "inconclusive: 44.7 µM [inhibitor, partial curve]"}, {"smiles": "CN(C)S(=O)(=O)c1cc(NC(=O)COC(=O)/C=C/c2ccco2)ccc1Cl", "Potency": "inconclusive: 56.2 µM [inhibitor, partial curve]"}, {"smiles": "O=Cc1ccc(Sc2nnc(-c3ccccc3)o2)c([N+](=O)[O-])c1", "Potency": "inconclusive: 31.6 µM [inhibitor, partial curve]"}, {"smiles": "CC(/C=C1\\SC(=S)N(NC(=O)c2cccc(O)c2)C1=O)=C\\c1ccccc1", "Potency": "inconclusive: 89.1 µM [inhibitor, partial curve]"}, {"smiles": "CS(=O)(=O)N1CCc2cc(S(=O)(=O)NCCNS(=O)(=O)c3ccc4c(c3)CCN4S(C)(=O)=O)ccc21", "activity change, negative = inhibition": "inactive: 2.38%"}, {"smiles": "N=C1S/C(=C\\c2ccc(-c3cccc(Cl)c3)o2)C(=O)N1c1nccs1", "Potency": "active: 44.7 µM"}, {"smiles": "O=C(CCC(=O)N1CCN(c2cccc(Cl)c2)CC1)c1cccs1", "activity change, negative = inhibition": "inactive: -5.95%"}, {"smiles": "Cc1cccc(N(C)S(=O)(=O)c2ccc3[nH]c(=O)c(=O)[nH]c3c2)c1", "Potency": "inconclusive: 56.2 µM [inhibitor, partial curve]"}, {"smiles": "Cc1ccc(C(N)=Nc2ccccc2)cc1", "Potency": "inconclusive: 11.2 µM [inhibitor, partial curve]"}, {"smiles": "O=C(NC1CCSC1=O)c1ccccc1", "note": "(configuration not stated)", "activity change, negative = inhibition": "inactive: -1.02%"}, {"smiles": "COCCn1nnnc1C(c1cc2cc(OC)c(OC)cc2[nH]c1=O)N1CCN(c2ccc(O)cc2)CC1", "note": "(configuration not stated)", "Potency": "inconclusive: 25.1 µM [inhibitor, single point]"}, {"smiles": "CCN(c1ccccc1)S(=O)(=O)c1ccc(Cl)c(NC(=O)CNCc2ccccc2OC)c1", "Potency": "inconclusive: 56.2 µM [inhibitor, partial curve]"}, {"smiles": "CCOc1ccc(N(CC(=O)Nc2cccnc2)S(=O)(=O)c2ccc(C)cc2)cc1", "Potency": "inconclusive: 79.4 µM [inhibitor, single point]"}, {"smiles": "O=C(Nc1ccc(Cl)cc1)N1CCN(c2ccccc2)CC1", "activity change, negative = inhibition": "inactive: 0.984%"}, {"smiles": "COc1cc(/C=C2\\C(=N)N3N=C(S(C)(=O)=O)SC3=NC2=O)cc(OC)c1OCCOc1ccccc1C", "Potency": "inconclusive: 56.2 µM [inhibitor, partial curve]"}, {"smiles": "CN(CC(=O)NCCc1ccc(S(N)(=O)=O)cc1)c1ccccc1", "activity change, negative = inhibition": "inactive: 5.24%"}, {"smiles": "CN(c1ccc(F)cc1)S(=O)(=O)c1ccc(Cl)c(C(=O)NCC(c2ccco2)N2CCCCC2)c1", "note": "(configuration not stated)", "activity change, negative = inhibition": "inactive: -8.37%"}, {"smiles": "COc1cc(CCC(=O)NCCc2ccc(F)cc2)cc(OC)c1OC", "Potency": "inconclusive: 25.1 µM [inhibitor, full curve, poor fit]"}, {"smiles": "CC(NC(=O)c1sc2cc([N+](=O)[O-])ccc2c1Cl)C(C)(C)C", "note": "(configuration not stated)", "Potency": "inconclusive: 25.1 µM [inhibitor, single point]"}, {"smiles": "Cc1cccc(N2CCN(C(=O)CCS(=O)(=O)c3ccc(Br)cc3)CC2C)c1", "note": "(configuration not stated)", "Potency": "inconclusive: 89.1 µM [inhibitor, partial curve, poor fit]"}, {"smiles": "Cc1ccc(C)c(OCC(=O)NNC(=O)CCN2CCN(c3ccccc3)CC2)c1", "Potency": "inconclusive: 20 µM [inhibitor, single point]"}, {"smiles": "CSc1ccc(CN(C)CC(=O)Nc2c(F)cccc2F)cc1", "Potency": "inconclusive: 50.1 µM [inhibitor, partial curve]"}, {"smiles": "O=C(O)C(C(=O)/C=C/c1ccco1)=C1SCCS1", "Potency": "inconclusive: 13.4 µM [inhibitor, partial curve]"}, {"smiles": "c1ccc(CN(Cc2ccco2)C(c2ccncc2)c2nnnn2C2CCCC2)cc1", "note": "(configuration not stated)", "Potency": "inconclusive: 56.2 µM [inhibitor, partial curve, poor fit]"}, {"smiles": "CC1CCN(c2nc(-c3ccco3)c3c(c2C#N)CC(C)(C)OC3)CC1", "activity change, negative = inhibition": "inactive: -19%"}, {"smiles": "CCc1ccc(S(=O)(=O)/N=C2\\C=C(Nc3cccc(C(=O)O)c3)C(=O)c3ccccc32)cc1", "Potency": "inconclusive: 10 µM [inhibitor, full curve]"}, {"smiles": "COc1ccc(C(=O)NC(CC(=O)O)c2cc([N+](=O)[O-])ccc2Cl)c(SC)c1", "note": "(configuration not stated)", "Potency": "inconclusive: 28.2 µM [inhibitor, single point]"}, {"smiles": "CCOC(=O)Cc1csc(NC(=O)NC2(C(F)(F)F)Oc3cc(Cl)c(Cl)cc3O2)n1", "activity change, negative = inhibition": "inactive: -17%"}, {"smiles": "COc1cc(/C=N/Nc2nnc3c(n2)[nH]c2ccccc23)ccc1O", "Potency": "inconclusive: 26.7 µM [inhibitor, partial curve]"}, {"smiles": "O=C(Nc1cccc(-c2cn3ccccc3n2)c1)c1cc2ccccc2oc1=O", "Potency": "inconclusive: 2 µM [inhibitor, full curve, poor fit]"}, {"smiles": "CC1(c2ccccc2)CC(C)(C)N2C(=O)/C(=C3\\SC(=S)NC3=O)c3cccc1c32", "note": "(configuration not stated)", "activity change, negative = inhibition": "inactive: -0.303%"}, {"smiles": "CCSc1n[nH]c2nc3c(c(=O)n12)C1(CCCCC1)Cc1ccccc1-3", "activity change, negative = inhibition": "inactive: 0.63%"}, {"smiles": "N#CC(C#N)=C1C=C2C=C(N3CCCCC3)CCC2CC1", "note": "(configuration not stated)", "Potency": "inconclusive: 70.8 µM [inhibitor, single point]"}, {"smiles": "CCc1ccc(N2C(=O)c3sc4nnc(-c5ccccc5)c(=O)n4c3C2=O)cc1", "Potency": "inconclusive: 50.1 µM [inhibitor, partial curve]"}, {"smiles": "O=C(O)C1Nc2ccc(Br)cc2C2C=CCC12", "note": "(configuration not stated)", "Potency": "active: 28.2 µM"}]}]}
